# Measurements from the M2OR odorant receptor database.
# Chains of the proteins cited; added tags and fusions are not shown. Chains listed by the source or under a name are the forms on record and can include a tag or linker.
# OR2J3, as listed by the source: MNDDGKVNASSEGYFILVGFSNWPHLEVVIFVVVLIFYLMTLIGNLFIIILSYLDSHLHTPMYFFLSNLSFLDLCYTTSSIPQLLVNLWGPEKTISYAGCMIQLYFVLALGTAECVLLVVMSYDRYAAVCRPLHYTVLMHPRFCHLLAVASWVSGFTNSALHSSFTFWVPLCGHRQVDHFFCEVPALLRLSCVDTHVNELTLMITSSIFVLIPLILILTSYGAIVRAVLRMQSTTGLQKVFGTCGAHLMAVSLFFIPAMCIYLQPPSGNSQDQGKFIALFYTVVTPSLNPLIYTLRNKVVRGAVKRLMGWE
# Substitutions are numbered along the chain they refer to. The entries are a selection whose mix differs from that of the whole data set. The calls were merged from several studies; some rest on single wells.
# Key:
# Details in all cases: stereoisomer not certain
# OR2K2 (Homo sapiens) = target: T1, OR2K2 (Homo sapiens) (UniProt Q8NGT1)
# T1 sequence (whole entry): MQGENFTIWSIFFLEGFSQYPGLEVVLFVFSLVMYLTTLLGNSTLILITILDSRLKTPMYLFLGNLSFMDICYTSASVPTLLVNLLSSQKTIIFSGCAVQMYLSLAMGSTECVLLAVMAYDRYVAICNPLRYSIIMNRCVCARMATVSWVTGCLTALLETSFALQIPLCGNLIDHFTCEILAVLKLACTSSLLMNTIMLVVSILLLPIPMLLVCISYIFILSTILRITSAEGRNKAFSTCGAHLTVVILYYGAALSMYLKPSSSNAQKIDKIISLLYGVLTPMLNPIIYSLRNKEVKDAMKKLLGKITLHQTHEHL
# Summary of the method: (§1)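 Assay methods differ from source to source, frequently being transient luciferase assays in mammalian cell lines. For each receptor–molecule pair, the label responsive (active) applies when the original authors judged the measured signal statistically different from baseline, and non-responsive (inactive) applies otherwise.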
# OR2L13 (Homo sapiens) = target: T2, OR2L13 (Homo sapiens) (UniProt Q8N349)
# T2 sequence (whole entry): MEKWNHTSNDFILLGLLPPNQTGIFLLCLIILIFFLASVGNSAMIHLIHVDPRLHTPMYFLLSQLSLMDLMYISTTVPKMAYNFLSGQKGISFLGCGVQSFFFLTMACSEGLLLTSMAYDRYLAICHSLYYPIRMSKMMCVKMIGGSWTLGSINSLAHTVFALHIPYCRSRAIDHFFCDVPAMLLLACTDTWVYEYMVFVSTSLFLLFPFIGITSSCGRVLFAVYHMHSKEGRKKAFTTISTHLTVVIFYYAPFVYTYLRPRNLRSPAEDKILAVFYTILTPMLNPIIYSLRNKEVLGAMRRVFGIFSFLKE
# Summary of the method: as §1
# OR2L2 (Homo sapiens) = target: T3, OR2L2 (Homo sapiens) (UniProt Q8NH16)
# T3 sequence (whole entry): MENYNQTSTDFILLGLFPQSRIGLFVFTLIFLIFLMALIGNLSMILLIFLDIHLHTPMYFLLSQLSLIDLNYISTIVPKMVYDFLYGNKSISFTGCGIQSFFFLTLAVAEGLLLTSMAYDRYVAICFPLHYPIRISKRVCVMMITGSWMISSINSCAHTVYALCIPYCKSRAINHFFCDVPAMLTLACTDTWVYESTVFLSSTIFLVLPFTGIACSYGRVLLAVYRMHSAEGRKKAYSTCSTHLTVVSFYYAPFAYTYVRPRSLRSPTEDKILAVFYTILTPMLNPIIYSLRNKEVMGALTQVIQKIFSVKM
# Summary of the method: as §1
# OR2J3 [1] = test system: T4, OR2J3
# T4 sequence (whole entry): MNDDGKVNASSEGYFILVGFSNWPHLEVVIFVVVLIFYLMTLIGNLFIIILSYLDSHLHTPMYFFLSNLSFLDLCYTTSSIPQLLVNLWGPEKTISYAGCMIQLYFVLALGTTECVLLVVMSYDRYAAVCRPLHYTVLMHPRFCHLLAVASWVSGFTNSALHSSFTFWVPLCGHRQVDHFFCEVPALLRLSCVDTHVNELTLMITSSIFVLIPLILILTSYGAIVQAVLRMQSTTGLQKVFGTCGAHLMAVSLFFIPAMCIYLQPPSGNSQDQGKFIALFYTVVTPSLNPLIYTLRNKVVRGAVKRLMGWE
# Summary of the method: as §1
# OR2J3 [2] = test system: T5, OR2J3; remark: listed apart in the source
# T5 sequence (whole entry): T4 sequence (whole entry) with Q226R, I261M
# Summary of the method: as §1
# OR2J3 [3] = test system: OR2J3; remark: listed apart in the source
# Summary of the method: as §1
# OR2J3 [4] = test system: OR2J3; remark: listed apart in the source
# Summary of the method: as §1
# OR2J3 [5] = test system: OR2J3; remark: listed apart in the source
# Summary of the method: as §1
# OR2J3 [6] = test system: OR2J3; remark: listed apart in the source
# Summary of the method: as §1
# OR2J3 [7] = test system: OR2J3; remark: listed apart in the source
# Summary of the method: as §1
smiles,measurement,setting,value
O=C1CCCCC1,odorant receptor agonist call,OR2K2 (Homo sapiens),inactive
same,odorant receptor agonist call,OR2L13 (Homo sapiens),inactive
same,odorant receptor agonist call,OR2L2 (Homo sapiens),inactive
CCCCCCCCCC=O,odorant receptor agonist call,OR2K2 (Homo sapiens),inactive
same,odorant receptor agonist call,OR2L13 (Homo sapiens),inactive
same,odorant receptor agonist call,OR2L2 (Homo sapiens),inactive
O=CCc1ccccc1,odorant receptor agonist call,OR2K2 (Homo sapiens),inactive
same,odorant receptor agonist call,OR2L13 (Homo sapiens),inactive
same,odorant receptor agonist call,OR2L2 (Homo sapiens),inactive
O=C1CCCCCCCCCCCC(=O)OCCO1,odorant receptor agonist call,OR2J3 [1],inactive
same,odorant receptor agonist call,OR2J3 [2],active
same,odorant receptor agonist call,OR2K2 (Homo sapiens),inactive
same,odorant receptor agonist call,OR2L13 (Homo sapiens),inactive
same,odorant receptor agonist call,OR2L2 (Homo sapiens),inactive
COc1cc(C)ccc1O,odorant receptor agonist call,OR2K2 (Homo sapiens),inactive
same,odorant receptor agonist call,OR2L13 (Homo sapiens),inactive
same,odorant receptor agonist call,OR2L2 (Homo sapiens),inactive
COC(=O)c1ccccc1O,odorant receptor agonist call,OR2K2 (Homo sapiens),inactive
same,odorant receptor agonist call,OR2L13 (Homo sapiens),inactive
same,odorant receptor agonist call,OR2L2 (Homo sapiens),inactive
C=CCSCC=C,odorant receptor agonist call,OR2K2 (Homo sapiens),inactive
same,odorant receptor agonist call,OR2L13 (Homo sapiens),inactive
same,odorant receptor agonist call,OR2L2 (Homo sapiens),inactive
CC=Cc1ccc(O)c(OC)c1,odorant receptor agonist call,OR2K2 (Homo sapiens),inactive
same,odorant receptor agonist call,OR2L13 (Homo sapiens),active
same,odorant receptor agonist call,OR2L2 (Homo sapiens),inactive
CC(C)=CCCC(C)=CC=O,odorant receptor agonist call,OR2K2 (Homo sapiens),inactive
same,odorant receptor agonist call,OR2L13 (Homo sapiens),inactive
same,odorant receptor agonist call,OR2L2 (Homo sapiens),inactive
CC12CCC(CC1)C(C)(C)O2,odorant receptor agonist call,OR2K2 (Homo sapiens),inactive
same,odorant receptor agonist call,OR2L13 (Homo sapiens),inactive
same,odorant receptor agonist call,OR2L2 (Homo sapiens),inactive
COC(=O)c1ccccc1,odorant receptor agonist call,OR2K2 (Homo sapiens),inactive
same,odorant receptor agonist call,OR2L13 (Homo sapiens),inactive
same,odorant receptor agonist call,OR2L2 (Homo sapiens),inactive
CC(C)CCC(=O)O,odorant receptor agonist call,OR2K2 (Homo sapiens),inactive
same,odorant receptor agonist call,OR2L13 (Homo sapiens),inactive
same,odorant receptor agonist call,OR2L2 (Homo sapiens),inactive
C=CCc1ccc(OC)c(OC)c1,odorant receptor agonist call,OR2K2 (Homo sapiens),inactive
same,odorant receptor agonist call,OR2L13 (Homo sapiens),inactive
same,odorant receptor agonist call,OR2L2 (Homo sapiens),inactive
CC(=O)OCC=C(C)CCC=C(C)C,odorant receptor agonist call,OR2J3 [1],active
same,odorant receptor agonist call,OR2J3 [2],active
same,odorant receptor agonist call,OR2J3 [3],active
same,odorant receptor agonist call,OR2K2 (Homo sapiens),inactive
same,odorant receptor agonist call,OR2L13 (Homo sapiens),inactive
same,odorant receptor agonist call,OR2L2 (Homo sapiens),inactive
O=C1CCCCCCCCCCCCCCO1,odorant receptor agonist call,OR2K2 (Homo sapiens),inactive
same,odorant receptor agonist call,OR2L13 (Homo sapiens),inactive
same,odorant receptor agonist call,OR2L2 (Homo sapiens),inactive
CCCCCOC(C)=O,odorant receptor agonist call,OR2J3 [4],inactive
same,odorant receptor agonist call,OR2J3 [5],active
same,odorant receptor agonist call,OR2K2 (Homo sapiens),inactive
same,odorant receptor agonist call,OR2L13 (Homo sapiens),inactive
same,odorant receptor agonist call,OR2L2 (Homo sapiens),inactive
CCC=CCCO,odorant receptor agonist call,OR2J3 [4],inactive
same,odorant receptor agonist call,OR2J3 [6],active
same,odorant receptor agonist call,OR2J3 [7],active
same,odorant receptor agonist call,OR2J3 [1],active
same,odorant receptor agonist call,OR2J3 [5],active
same,odorant receptor agonist call,OR2J3 [2],active
same,odorant receptor agonist call,OR2J3 [3],inactive
same,odorant receptor agonist call,OR2K2 (Homo sapiens),inactive
same,odorant receptor agonist call,OR2L13 (Homo sapiens),inactive
same,odorant receptor agonist call,OR2L2 (Homo sapiens),inactive
CCCCO,odorant receptor agonist call,OR2K2 (Homo sapiens),inactive
same,odorant receptor agonist call,OR2L13 (Homo sapiens),inactive
same,odorant receptor agonist call,OR2L2 (Homo sapiens),inactive
CC(=O)c1ccccc1,odorant receptor agonist call,OR2K2 (Homo sapiens),inactive
same,odorant receptor agonist call,OR2L13 (Homo sapiens),inactive
same,odorant receptor agonist call,OR2L2 (Homo sapiens),inactive
CCCCCCCC=CC=O,odorant receptor agonist call,OR2K2 (Homo sapiens),inactive
same,odorant receptor agonist call,OR2L13 (Homo sapiens),inactive
same,odorant receptor agonist call,OR2L2 (Homo sapiens),active
CC1CCC(C(C)C)C(O)C1 (configuration not stated),odorant receptor agonist call,OR2K2 (Homo sapiens),inactive
same,odorant receptor agonist call,OR2L13 (Homo sapiens),active
same,odorant receptor agonist call,OR2L2 (Homo sapiens),inactive

# Some of the entries so far, with tabs:
smiles	measurement	setting	value
O=C1CCCCCCCCCCCC(=O)OCCO1	odorant receptor agonist call	OR2L13 (Homo sapiens)	inactive
COC(=O)c1ccccc1O	odorant receptor agonist call	OR2L2 (Homo sapiens)	inactive

# No new results follow: an excerpt of the list.
smiles,measurement,setting,value
CC(C)CCC(=O)O,odorant receptor agonist call,OR2L2 (Homo sapiens),inactive
C=CCc1ccc(OC)c(OC)c1,odorant receptor agonist call,OR2K2 (Homo sapiens),inactive
